{"sequences": {"note": "Chains of the proteins cited; added tags and fusions are not shown. Residues count along the entry.", "UniProt P40763, 127-722": "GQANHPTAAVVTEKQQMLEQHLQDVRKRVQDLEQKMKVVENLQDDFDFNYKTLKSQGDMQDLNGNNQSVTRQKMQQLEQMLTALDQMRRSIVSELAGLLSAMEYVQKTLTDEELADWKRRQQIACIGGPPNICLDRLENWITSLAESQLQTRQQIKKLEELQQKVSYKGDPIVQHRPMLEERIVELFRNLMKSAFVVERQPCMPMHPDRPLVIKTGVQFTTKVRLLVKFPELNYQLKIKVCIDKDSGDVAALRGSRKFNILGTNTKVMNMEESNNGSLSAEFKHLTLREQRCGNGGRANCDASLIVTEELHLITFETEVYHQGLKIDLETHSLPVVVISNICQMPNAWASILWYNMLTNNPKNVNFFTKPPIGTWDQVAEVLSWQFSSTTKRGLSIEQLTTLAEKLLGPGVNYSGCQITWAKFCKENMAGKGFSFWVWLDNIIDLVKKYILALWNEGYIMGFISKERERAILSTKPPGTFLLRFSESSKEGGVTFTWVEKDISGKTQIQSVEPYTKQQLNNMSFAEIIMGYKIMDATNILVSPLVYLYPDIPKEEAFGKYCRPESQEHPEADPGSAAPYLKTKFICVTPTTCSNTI"}, "source": "paper PMC5727390", "target": "STAT3 (UniProt P40763)", "test": "EMSA", "settings": "NSC-370284 (concentration not in text), binding almost completely blocked; Signosis EMSA Assay Kit, manufacturer's protocol with minor modifications; pH and temperature not stated; label: 5' biotin on both strands", "note": "Construct, isoform or probe ends are uncertain for at least one entry. The comparison behind a weaker result is the experiment's own reference, which may not be listed here.", "data": [{"sequence": "CCGGTAGGCGTCCTCCGCGACCCGC (double strand) [TET1-CPG probe]", "values": [{"measurement": "binding result", "result": "binds more weakly"}]}]}
